No constants are given. Whether binding was seen depends on the method and setting. Binding seen in cells or lysates may run through a third protein. Some entries that bind do so weakly or less than the wild type.

The chains behind the UniProt entries cited, without tags or fusion partners.
UniProt O75150: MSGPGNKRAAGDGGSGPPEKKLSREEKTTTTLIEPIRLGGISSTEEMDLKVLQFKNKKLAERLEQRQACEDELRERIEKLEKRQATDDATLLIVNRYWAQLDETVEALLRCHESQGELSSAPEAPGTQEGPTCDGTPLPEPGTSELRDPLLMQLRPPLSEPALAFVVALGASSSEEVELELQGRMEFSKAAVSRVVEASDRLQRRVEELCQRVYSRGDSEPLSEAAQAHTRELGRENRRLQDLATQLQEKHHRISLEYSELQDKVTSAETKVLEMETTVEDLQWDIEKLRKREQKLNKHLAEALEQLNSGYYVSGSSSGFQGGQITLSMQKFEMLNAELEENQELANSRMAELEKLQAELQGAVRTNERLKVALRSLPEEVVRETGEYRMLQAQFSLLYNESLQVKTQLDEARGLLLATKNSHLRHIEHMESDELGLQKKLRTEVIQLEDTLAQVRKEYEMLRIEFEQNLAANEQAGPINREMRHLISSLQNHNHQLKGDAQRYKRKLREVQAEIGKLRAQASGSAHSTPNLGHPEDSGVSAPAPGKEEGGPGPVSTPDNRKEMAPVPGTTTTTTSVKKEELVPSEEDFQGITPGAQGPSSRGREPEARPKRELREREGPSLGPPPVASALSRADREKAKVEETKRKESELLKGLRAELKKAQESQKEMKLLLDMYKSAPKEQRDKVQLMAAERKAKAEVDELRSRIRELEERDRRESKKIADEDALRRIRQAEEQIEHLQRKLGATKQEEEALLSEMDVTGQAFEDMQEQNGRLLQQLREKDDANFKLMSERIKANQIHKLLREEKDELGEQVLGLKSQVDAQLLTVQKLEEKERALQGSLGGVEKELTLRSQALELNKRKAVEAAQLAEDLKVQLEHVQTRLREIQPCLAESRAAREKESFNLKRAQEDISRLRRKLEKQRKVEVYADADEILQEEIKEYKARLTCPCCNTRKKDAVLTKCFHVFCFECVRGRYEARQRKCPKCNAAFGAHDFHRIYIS
UniProt Q9UHB6: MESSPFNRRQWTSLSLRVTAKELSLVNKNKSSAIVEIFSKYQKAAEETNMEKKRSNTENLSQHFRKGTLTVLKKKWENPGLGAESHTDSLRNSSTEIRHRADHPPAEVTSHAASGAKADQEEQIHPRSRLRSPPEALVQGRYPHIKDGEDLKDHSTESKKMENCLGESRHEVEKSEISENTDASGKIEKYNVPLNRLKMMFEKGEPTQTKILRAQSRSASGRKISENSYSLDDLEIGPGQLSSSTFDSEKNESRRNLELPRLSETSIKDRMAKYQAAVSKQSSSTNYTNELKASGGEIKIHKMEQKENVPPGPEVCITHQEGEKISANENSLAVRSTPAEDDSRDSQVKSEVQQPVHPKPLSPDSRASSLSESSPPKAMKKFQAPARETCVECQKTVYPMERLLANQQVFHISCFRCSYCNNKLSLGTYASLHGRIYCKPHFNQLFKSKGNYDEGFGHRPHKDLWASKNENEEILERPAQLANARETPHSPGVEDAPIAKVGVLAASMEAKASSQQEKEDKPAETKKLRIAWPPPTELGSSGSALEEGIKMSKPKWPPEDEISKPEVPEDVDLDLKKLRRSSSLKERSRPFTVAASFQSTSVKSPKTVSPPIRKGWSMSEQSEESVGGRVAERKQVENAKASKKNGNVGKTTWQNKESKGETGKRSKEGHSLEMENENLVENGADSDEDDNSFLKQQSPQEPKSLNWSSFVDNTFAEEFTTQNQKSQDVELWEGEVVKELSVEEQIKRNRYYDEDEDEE

This test deals with endogenous RNF40 (human (endogenous in Hep3B)) (UniProt O75150). The experiment in a line: co-IP; endogenous proteins in Hep3B cells; immunoprecipitation with an antibody against RNF40, LIMA1 detected by immunoblotting. Background: In western blotting, separated proteins are transferred to a membrane and probed.

Take “endogenous LIMA1 (from UniProt Q9UHB6 1-759)”: the binding result was “binds”.
